Source: PubChem BioAssay AID488837 (National Center for Advancing Translational Sciences (NCATS), 2010)
In all, about 330,000 compounds went through this assay and about 20 (0.006%) were called active. The call rests on the fitted dose curve; in most records, active means well fitted inhibition curve with a large enough effect; inconclusive means small, poorly fitted or top-dose-only effect, or effect the other way; inactive means flat fitted curve, though single readings scatter. Inconclusive results, whose numbers are uncertain, are shown. A potency beside an inconclusive call is a rough fit, not a confirmed value.
Potency means the concentration at half of the fitted maximal effect.

Sequences of proteins named here, by UniProt entry; tags and fusion partners are left off. A change or cut given only in a name is not applied to a line headed by its entry.
UniProt O00167: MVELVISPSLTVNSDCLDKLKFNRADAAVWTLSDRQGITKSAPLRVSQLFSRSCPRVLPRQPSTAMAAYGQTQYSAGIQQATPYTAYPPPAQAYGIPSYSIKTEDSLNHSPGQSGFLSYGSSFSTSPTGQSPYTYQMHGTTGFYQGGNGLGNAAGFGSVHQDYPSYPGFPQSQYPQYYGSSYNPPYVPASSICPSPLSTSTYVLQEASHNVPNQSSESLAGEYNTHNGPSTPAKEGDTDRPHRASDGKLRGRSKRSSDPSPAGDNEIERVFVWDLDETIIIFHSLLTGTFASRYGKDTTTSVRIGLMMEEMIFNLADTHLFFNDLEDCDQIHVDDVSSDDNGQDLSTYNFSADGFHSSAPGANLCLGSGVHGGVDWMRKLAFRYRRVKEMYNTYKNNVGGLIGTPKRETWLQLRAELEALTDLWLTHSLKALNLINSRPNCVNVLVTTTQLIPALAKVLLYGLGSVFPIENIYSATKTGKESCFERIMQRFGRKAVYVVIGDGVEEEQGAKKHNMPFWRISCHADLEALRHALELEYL

The compounds below were run against Protein phosphatase EYA2 (Homo sapiens) (UniProt O00167) (assay: qHTS Assay for Inhibitors of the Phosphatase Activity of Eya2). Conditions: recombinant Eya2, OMFP fluorescence dephosphorylation (OMFP is methylfluorescein phosphate); series mostly up to 76.9 µM.
Text: The Eya family of proteins are essential co-activators of the Six1 transcription factor. Six1 is a developmental gene that is abnormally re-expressed in a large percentage of breast cancers. This over-expression plays a causal role in the initiation and metastatic development of breast cancers. The Eya family of proteins was also found to contain a unique HAD phosphatase domain with protein tyrosine phosphatase activity which can potentially play a role in Six1-mediated breast tumorigenesis. […] We have developed and optimized a 1536 well fluorescence-based HTS assay targeting the phosphatase activity of Eya2. Inhibitors found against Eya2 could serve as potential therapeutic tools to inhibit Six1-mediated breast tumorigenesis and to increase the efficiency of radiation and certain chemo therapy. These inhibitors could also be used as chemical probes to study the function of Eya2's phosphatase activity and its role in Six1-mediated breast tumorigenesis.
The Eya2 enzyme was kindly provided by the laboratory of Dr. Rui Zhao. The 3-O-methyl-fluorescein phosphate (OMFP) substrate and all buffer reagents were purchased from Sigma Aldrich. qHTS Assay Setup: 1. Buffer- 50 mM HEPES pH 7.5, 50 mM NaCl, 5 uM MgCl2, 0.05% BSA, 1 mM DTT. 2. OMFP Stock- 10 mM solution prepared in 100% DMSO and stored in single use aliquots at -20C. […] Read on ViewLux using Excitation = 485 nm, Emission = 525 nm
For `COc1cccc(C2C3=C(N=c4s/c(=C\c5ccc(OCC(=O)O)cc5)c(=O)n42)c2ccccc2CC3)c1` (stereo unspecified), the Potency was inconclusive: 89.1 µM [inhibitor, single point].
